Measurements published in publication PMC5548744.
Results are given in words; binding and its absence hold for the method and conditions named. In cells and extracts the contact can be indirect. Some results given as binding are weak or reduced against the parent protein; the word gives no strength.

Chains of the proteins cited; added tags and fusions are not shown.
UniProt Q9Y2J4: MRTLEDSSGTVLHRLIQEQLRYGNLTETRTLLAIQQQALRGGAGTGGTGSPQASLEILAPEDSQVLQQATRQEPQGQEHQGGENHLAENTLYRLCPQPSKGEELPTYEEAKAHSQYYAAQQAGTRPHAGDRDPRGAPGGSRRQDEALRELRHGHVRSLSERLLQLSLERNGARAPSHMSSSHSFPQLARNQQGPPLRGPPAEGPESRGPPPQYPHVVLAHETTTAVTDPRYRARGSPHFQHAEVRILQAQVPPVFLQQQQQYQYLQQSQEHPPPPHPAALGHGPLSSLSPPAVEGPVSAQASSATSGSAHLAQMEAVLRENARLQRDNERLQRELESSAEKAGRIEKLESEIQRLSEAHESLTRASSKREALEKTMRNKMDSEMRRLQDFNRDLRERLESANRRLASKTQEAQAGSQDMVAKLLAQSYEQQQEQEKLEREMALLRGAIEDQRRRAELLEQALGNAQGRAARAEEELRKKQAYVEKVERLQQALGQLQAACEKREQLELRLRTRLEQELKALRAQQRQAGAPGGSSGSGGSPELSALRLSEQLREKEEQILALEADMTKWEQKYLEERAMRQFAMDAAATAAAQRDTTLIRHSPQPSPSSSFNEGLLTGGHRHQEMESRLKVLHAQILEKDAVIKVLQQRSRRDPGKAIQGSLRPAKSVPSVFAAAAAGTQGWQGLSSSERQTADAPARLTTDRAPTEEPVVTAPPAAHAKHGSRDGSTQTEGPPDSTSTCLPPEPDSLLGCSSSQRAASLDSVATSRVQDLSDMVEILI
UniProt Q8TEW0: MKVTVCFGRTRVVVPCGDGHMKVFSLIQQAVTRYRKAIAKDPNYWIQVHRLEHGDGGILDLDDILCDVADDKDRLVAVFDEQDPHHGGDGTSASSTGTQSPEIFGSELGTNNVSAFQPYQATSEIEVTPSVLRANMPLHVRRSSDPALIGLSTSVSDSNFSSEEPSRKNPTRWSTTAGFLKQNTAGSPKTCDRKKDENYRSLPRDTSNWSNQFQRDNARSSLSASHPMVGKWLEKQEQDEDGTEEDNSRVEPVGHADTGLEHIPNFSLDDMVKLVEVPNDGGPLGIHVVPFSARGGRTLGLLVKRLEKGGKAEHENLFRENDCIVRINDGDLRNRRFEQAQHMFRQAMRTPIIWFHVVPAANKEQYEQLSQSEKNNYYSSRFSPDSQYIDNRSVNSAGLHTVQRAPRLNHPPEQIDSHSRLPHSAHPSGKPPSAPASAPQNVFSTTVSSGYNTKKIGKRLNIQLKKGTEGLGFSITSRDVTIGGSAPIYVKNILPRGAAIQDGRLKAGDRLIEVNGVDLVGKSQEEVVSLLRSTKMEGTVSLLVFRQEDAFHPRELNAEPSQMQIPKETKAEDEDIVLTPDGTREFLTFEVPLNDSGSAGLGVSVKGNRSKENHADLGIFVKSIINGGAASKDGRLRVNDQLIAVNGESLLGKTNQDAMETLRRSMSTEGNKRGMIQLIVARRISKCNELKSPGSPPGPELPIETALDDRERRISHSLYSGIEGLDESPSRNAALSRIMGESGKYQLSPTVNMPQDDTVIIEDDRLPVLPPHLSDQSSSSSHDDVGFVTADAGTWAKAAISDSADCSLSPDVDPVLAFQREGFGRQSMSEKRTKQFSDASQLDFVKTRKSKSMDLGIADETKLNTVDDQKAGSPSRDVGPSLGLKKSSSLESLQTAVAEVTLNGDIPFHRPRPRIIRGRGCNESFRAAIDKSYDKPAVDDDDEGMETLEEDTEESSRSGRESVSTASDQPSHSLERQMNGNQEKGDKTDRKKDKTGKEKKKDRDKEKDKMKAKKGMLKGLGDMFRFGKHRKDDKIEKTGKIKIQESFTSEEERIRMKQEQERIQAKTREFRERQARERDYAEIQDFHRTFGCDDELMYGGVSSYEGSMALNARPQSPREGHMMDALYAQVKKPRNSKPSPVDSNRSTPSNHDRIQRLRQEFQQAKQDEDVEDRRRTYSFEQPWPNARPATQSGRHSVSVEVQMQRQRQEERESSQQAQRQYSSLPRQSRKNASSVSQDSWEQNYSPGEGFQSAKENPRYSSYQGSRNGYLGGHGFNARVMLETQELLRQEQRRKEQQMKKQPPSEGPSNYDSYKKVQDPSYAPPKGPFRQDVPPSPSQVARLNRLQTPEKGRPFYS

Molecular target: Angiomotin-Like-2 (AmotL2), endogenous in HaCaT human keratinocytes (human (endogenous in HaCaT)) (UniProt Q9Y2J4)
Assay: co-IP; HaCaT cell lysate, control siRNA; lysis buffer 50 mM Tris-HCl pH 7.6, 150 mM NaCl, 1 mM EDTA, 1% Nonidet P40; precipitated with rabbit antibody against the C-terminal motif of human amotL2, Protein G Sepharose, 4 °C; western blot

Substance: Par3, endogenous in HaCaT cells (from UniProt Q8TEW0 1-1356)
- binding: binds
